The name of at least one read-out is uncertain. Peptide text beside a SMILES is read from it. * marks the point of attachment. AMC = Cc1cc(=O)oc2cc(N*)ccc12; Cbz = O=C(OCc1ccccc1)*
Columns and labels:
human plasma kallikrein = human plasma kallikrein (Homo sapiens, UniProt P03952); assay: Kinetic parameters of the peptide substrate with kallikrein (Michaelis-Menten fit); type: biochemical
From the text: A fluorescence intensity (FLINT) based assay was used to monitor inhibition of human plasma kallikrein. The peptide substrate, Z-Gly-Pro-Arg-AMC (Purchased from Bachem; Catalog #I-1150) was chosen based on its relatively low KM for kallikrein which enables running the assay at lower substrate concentrations to control background fluorescence.

The chains behind the UniProt entries cited, without tags or fusion partners. Residues count along the entry.
UniProt P03952, 20-390 partner limits assumed: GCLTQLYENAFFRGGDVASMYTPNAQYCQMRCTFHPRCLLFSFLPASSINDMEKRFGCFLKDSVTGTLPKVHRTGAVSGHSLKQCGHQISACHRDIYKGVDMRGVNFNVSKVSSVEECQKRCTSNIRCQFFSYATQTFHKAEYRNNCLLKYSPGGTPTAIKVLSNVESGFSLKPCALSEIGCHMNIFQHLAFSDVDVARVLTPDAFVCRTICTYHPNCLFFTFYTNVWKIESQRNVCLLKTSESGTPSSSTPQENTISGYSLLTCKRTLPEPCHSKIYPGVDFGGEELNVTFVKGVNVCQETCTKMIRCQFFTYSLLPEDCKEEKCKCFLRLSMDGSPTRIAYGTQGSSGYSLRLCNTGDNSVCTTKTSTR
UniProt P03952, 391-638 limits assumed: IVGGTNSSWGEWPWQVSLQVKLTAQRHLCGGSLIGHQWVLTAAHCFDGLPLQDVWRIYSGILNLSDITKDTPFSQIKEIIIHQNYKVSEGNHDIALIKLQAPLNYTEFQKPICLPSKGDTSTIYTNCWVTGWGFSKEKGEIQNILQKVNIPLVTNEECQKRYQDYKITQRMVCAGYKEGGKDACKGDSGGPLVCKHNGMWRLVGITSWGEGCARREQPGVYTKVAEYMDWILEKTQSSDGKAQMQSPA
UniProt P03951, 19-387 partner limits assumed: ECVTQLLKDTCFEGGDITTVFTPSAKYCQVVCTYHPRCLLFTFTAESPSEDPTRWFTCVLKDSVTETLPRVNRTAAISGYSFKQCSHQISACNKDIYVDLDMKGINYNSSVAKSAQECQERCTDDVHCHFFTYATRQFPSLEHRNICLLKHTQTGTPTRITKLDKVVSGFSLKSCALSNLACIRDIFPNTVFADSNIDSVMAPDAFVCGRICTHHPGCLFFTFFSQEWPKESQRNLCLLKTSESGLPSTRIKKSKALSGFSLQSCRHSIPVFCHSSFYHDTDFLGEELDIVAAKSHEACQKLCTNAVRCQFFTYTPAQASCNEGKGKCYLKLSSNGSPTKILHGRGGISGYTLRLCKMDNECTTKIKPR
UniProt P03951, 388-625 limits assumed: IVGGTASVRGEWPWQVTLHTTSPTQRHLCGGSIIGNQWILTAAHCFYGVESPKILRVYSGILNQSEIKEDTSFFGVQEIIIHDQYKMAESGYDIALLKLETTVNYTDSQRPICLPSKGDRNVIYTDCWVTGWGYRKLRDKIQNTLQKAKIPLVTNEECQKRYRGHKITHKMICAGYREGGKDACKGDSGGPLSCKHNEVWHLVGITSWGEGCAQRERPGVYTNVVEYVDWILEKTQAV

Factor XIa = Factor XIa (Homo sapiens, UniProt P03951); assay: Kinetic parameters of the peptide substrate with Factor XIa (substrate inhibition model); type: biochemical; conditions: substrate of FXIa
From the text: A fluorescence intensity (FLINT) based assay was used to monitor inhibition of Factor XIa. The peptide substrate, 5Fam-KLTRAETV-K5Tamra (purchased from New England Peptide) was chosen based on the FXI sequence. Conversion of zymogen FXI to its activated form, FXIa, occurs by proteolytic cleavage by […] at two sites, Arg146 and Arg180. The custom peptide used in this assay was based on the Arg146 cleavage site of FXI. The peptide substrate was designed with a fluorophore-quencher pair, where the fluorescence is quenched until FXIa cleaves the 8-mer peptide after the Arg residue.

Compound | kcat/KM (human plasma kallikrein) [M⁻¹ s⁻¹] | kcat/KM (enzymatic efficiency) (Factor XIa) [M⁻¹ s⁻¹]
Cc1cc(=O)oc2cc(NC(=O)[C@H](CCCNC(=N)N)NC(=O)[C@@H]3CCCN3C(=O)CNC(=O)OCc3ccccc3)ccc12 [Z-Gly-Pro-Arg-AMC] (Cbz-Gly-Pro-Arg-{AMC}) | 18932 | –
5Fam-KLTRAETV-K5Tamra (5-FAM N-terminal; C-terminal Lys-TAMRA) [fluorophore-quencher pair peptide substrate based on the Arg146 cleavage site of FXI, purchased from New England Peptide] | – | 69523

Source: patent US11958856B2, “Substituted 1,2,3,8,9,9a-hexahydro-5H-pyrrolo[1,2-a]azepin-5-ones as factor XIa inhibitors” (Janssen Pharmaceutica NV, priority 2021, dated 2024)
